No constants are given. Whether binding was seen depends on the method and setting. For part of these data: A result given as binding can be weak or reduced; the word gives no strength. For part of these data: Where a sequence is shown, tags or fusion partners need not be part of it.
T1: mCh-tensin2-cBAK (human) (UniProt Q63HR2)
T1 sequence: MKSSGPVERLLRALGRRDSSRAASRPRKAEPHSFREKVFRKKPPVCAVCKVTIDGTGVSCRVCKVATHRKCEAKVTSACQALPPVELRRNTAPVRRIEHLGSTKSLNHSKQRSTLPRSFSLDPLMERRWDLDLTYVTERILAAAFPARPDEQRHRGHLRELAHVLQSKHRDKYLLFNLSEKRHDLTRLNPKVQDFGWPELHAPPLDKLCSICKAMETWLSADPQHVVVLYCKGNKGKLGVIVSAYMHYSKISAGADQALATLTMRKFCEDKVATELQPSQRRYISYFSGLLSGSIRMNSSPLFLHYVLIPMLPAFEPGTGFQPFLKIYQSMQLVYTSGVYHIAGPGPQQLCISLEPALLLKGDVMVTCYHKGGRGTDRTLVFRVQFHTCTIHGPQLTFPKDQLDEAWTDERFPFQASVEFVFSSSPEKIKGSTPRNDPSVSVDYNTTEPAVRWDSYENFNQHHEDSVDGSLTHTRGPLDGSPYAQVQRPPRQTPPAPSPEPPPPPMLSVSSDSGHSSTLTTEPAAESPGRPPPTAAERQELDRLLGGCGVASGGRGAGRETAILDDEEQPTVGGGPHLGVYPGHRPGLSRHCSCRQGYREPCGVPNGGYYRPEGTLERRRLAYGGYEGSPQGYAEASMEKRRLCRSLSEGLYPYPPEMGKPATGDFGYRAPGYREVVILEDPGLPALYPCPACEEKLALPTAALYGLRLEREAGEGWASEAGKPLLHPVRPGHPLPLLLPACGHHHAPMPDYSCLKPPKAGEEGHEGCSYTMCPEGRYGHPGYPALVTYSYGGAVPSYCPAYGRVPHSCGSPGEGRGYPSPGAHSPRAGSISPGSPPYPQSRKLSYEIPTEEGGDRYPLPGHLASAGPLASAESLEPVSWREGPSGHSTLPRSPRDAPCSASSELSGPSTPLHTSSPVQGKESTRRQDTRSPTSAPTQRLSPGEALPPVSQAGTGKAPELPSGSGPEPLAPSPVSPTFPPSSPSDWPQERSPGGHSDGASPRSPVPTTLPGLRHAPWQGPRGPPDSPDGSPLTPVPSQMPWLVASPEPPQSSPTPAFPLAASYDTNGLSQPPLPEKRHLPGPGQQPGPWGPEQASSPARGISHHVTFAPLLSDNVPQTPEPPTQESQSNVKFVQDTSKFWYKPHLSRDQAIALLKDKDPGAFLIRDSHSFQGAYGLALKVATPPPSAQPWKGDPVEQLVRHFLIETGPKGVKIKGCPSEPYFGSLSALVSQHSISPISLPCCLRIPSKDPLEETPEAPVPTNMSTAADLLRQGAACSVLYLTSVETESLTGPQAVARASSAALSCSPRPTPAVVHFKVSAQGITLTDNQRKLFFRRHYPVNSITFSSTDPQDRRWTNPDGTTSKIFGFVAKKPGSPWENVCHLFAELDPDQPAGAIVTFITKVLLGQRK

Sequences of proteins named here, by UniProt entry; tags and fusion partners are left off. A change or cut given only in a name is not applied to a line headed by its entry.
UniProt Q9HBL0: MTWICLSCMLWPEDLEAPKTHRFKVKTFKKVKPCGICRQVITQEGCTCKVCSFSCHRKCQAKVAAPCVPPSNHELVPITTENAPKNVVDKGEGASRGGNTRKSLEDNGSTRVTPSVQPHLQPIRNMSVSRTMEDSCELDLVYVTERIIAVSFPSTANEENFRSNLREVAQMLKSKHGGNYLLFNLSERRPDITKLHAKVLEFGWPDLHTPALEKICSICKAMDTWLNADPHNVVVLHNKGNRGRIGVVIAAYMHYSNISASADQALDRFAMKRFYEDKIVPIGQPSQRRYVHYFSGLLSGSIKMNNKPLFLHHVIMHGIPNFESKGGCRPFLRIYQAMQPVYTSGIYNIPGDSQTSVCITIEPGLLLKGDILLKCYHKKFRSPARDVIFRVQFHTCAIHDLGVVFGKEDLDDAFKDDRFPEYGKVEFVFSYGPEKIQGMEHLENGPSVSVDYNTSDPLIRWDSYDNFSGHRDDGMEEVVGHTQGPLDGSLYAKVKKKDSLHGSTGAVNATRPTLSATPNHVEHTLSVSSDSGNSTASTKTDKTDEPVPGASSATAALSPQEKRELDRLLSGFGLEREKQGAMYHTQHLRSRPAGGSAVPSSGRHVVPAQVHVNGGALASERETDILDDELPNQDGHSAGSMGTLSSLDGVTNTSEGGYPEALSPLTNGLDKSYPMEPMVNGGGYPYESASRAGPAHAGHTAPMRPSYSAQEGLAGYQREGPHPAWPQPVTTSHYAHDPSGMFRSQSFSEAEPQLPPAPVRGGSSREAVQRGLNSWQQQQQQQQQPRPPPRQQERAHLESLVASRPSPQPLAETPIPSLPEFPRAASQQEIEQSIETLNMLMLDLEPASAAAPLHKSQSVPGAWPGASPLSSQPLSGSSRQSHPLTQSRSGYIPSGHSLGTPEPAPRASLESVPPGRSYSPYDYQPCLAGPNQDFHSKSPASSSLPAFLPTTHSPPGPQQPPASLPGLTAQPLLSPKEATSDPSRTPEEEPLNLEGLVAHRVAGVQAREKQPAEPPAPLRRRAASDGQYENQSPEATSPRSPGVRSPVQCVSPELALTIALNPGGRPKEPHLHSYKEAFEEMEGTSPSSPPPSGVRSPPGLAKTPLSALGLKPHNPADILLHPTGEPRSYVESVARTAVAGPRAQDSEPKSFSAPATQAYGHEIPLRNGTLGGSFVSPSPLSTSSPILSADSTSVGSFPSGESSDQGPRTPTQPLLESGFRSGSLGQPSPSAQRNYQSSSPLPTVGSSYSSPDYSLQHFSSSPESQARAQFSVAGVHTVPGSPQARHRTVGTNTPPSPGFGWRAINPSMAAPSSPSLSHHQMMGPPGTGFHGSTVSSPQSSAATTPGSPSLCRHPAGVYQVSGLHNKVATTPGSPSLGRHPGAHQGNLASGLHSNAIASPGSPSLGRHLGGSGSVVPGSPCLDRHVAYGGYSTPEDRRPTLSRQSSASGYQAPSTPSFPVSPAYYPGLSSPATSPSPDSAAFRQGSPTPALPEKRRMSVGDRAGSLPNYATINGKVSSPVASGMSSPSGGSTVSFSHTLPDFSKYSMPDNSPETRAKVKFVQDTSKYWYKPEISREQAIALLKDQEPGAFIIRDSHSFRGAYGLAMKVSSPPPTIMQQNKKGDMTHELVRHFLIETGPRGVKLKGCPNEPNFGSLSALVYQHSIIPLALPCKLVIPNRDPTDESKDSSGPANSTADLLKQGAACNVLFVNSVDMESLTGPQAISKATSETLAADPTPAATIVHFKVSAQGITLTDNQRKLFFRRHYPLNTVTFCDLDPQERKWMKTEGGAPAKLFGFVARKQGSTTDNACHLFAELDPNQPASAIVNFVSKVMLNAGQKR
UniProt Q8VI36: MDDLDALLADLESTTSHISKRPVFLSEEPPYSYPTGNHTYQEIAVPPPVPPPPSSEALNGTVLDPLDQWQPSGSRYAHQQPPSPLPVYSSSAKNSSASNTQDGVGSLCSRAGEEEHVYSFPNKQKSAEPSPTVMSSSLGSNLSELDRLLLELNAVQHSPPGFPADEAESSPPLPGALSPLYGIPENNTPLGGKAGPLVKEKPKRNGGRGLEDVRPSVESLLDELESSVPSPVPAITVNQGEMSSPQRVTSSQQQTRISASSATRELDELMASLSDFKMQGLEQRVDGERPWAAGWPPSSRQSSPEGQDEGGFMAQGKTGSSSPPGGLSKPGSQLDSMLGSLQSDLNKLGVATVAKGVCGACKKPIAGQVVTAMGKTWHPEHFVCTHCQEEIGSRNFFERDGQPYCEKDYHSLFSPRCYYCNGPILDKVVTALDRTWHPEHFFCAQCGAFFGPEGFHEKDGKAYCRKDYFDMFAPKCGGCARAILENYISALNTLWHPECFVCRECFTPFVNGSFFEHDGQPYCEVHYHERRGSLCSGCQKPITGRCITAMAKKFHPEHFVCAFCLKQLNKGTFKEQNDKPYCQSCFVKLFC
UniProt P26039: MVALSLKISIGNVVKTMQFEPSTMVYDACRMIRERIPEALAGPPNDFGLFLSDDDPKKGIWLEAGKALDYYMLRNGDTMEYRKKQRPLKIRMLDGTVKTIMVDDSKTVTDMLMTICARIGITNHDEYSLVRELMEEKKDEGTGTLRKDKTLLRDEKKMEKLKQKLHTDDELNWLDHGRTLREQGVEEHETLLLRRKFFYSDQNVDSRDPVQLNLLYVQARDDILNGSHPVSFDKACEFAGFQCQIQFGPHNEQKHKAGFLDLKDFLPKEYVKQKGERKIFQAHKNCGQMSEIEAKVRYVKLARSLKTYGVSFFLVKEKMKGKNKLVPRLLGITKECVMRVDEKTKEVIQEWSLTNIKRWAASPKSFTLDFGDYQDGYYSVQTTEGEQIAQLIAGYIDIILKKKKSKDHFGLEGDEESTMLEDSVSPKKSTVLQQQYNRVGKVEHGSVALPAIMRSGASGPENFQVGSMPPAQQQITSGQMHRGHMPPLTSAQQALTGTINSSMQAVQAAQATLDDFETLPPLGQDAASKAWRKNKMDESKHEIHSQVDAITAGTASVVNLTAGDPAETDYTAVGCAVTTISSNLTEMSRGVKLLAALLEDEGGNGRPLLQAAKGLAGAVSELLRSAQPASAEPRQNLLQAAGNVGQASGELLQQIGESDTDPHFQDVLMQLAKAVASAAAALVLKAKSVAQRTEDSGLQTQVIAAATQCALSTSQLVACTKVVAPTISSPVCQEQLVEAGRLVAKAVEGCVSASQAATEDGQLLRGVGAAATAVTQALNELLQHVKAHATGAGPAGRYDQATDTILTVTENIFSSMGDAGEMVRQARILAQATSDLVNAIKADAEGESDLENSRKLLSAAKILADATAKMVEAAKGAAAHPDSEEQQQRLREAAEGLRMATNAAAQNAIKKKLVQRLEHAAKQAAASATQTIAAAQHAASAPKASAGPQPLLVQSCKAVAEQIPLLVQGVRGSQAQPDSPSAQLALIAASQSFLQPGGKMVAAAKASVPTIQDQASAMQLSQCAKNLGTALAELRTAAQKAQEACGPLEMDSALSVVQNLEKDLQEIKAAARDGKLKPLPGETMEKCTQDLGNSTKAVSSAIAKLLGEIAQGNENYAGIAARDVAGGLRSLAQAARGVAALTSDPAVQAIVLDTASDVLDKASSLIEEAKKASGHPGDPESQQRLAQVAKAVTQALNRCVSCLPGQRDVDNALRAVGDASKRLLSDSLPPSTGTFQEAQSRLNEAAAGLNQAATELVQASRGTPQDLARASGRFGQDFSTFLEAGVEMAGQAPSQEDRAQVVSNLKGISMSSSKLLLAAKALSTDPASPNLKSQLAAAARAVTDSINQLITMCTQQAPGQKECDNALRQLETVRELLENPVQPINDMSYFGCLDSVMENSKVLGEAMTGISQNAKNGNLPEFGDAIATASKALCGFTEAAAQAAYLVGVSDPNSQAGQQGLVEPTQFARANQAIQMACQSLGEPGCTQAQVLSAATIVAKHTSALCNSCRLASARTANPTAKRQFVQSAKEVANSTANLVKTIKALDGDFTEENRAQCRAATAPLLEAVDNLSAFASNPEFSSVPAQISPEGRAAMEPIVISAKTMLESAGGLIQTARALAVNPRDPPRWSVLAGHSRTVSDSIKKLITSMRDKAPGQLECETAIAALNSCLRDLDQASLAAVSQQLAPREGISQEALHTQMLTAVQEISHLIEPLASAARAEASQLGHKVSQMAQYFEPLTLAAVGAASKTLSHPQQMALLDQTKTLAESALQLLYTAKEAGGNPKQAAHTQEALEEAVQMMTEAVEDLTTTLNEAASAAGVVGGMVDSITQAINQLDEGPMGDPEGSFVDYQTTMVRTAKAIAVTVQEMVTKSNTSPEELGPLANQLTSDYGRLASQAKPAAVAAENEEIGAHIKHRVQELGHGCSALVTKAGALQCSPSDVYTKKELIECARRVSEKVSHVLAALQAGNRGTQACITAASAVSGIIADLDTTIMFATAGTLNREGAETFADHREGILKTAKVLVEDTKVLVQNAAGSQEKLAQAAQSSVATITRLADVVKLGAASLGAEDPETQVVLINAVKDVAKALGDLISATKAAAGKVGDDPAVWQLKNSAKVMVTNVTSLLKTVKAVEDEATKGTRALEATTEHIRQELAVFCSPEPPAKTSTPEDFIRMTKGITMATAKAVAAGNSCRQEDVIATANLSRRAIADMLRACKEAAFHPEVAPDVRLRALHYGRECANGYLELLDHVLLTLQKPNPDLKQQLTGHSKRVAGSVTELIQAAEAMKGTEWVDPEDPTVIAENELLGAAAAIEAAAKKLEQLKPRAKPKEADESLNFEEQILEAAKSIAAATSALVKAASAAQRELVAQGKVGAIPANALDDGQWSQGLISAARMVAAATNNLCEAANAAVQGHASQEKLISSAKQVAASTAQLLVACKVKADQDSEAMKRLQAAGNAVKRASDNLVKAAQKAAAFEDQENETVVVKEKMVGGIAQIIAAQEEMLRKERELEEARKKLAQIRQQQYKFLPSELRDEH
UniProt Q64727: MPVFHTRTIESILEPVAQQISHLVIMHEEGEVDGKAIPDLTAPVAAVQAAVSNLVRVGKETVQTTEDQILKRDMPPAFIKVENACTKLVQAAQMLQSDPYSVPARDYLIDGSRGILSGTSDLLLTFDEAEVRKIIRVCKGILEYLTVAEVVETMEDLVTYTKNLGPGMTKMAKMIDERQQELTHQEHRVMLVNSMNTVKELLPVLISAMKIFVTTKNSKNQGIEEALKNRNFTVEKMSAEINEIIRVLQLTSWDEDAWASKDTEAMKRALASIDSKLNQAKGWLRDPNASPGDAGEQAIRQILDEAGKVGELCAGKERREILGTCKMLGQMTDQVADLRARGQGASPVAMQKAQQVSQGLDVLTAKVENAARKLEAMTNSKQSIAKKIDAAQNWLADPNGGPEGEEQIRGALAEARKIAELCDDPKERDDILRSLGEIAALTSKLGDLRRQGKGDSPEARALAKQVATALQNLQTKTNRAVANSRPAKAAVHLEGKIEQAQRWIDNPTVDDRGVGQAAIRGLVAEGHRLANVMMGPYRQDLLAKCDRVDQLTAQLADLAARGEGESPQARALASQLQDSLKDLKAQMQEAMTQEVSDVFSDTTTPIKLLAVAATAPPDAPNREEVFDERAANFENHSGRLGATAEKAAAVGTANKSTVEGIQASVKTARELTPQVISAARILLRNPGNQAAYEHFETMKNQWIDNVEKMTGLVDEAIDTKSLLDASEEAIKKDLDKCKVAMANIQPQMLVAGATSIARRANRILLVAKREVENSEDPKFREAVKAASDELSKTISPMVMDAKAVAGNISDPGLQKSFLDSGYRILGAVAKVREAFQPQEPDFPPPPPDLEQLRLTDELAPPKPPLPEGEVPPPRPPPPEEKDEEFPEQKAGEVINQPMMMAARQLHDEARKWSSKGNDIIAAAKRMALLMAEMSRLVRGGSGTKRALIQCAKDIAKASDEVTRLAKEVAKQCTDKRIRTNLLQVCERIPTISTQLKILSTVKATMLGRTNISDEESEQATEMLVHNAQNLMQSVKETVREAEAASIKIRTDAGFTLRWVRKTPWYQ
UniProt Q13418: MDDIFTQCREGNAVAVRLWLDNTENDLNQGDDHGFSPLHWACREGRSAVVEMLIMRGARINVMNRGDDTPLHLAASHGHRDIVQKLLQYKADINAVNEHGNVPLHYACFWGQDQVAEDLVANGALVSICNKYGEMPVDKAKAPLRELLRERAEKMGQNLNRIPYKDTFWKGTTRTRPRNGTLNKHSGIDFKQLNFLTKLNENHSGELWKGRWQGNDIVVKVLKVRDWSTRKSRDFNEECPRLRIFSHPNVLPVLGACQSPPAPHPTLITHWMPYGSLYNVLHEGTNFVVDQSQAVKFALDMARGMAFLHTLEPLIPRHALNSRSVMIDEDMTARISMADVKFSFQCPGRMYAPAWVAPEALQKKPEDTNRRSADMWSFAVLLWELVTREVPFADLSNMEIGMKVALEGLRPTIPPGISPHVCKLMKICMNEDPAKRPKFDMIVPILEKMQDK

B1: GFP-tensin3-FL∆H1 (protein, UniProt Q68CZ2)
chain: MEEGHGLDLTYITERIIAVSFPAGCSEESYLHNLQEVTRMLKSKHGDNYLVLNLSEKRYDLTKLNPKIMDVGWPELHAPPLDKMCTICKAQESWLNSNLQHVVVIHCRGGKGRIGVVISSYMHFTNVSASADQALDRFAMKKFYDDKVSALMQPSQKRYVQFLSGLLSGSVKMNASPLFLHFVILHGTPNFDTGGVCRPFLKLYQAMQPVYTSGIYNVGPENPSRICIVIEPAQLLKGDVMVKCYHKKYRSATRDVIFRLQFHTGAVQGYGLVFGKEDLDNASKDDRFPDYGKVELVFSATPEKIQGSEHLYNDHGVIVDYNTTDPLIRWDSYENLSADGEVLHTQGPVDGSLYAKVRKKSSSDPGIPGGPQAIPATNSPDHSDHTLSVSSDSGHSTASARTDKTEERLAPGTRRGLSAQEKAELDQLLSGFGLEDPGSSLKEMTDARSKYSGTRHVVPAQVHVNGDAALKDRETDILDDEMPHHDLHSVDSLGTLSSSEGPQSAHLGPFTCHKSSQNSLLSDGFGSNVGEDPQGTLVPDLGLGMDGPYERERTFGSREPKQPQPLLRKPSVSAQMQAYGQSSYSTQTWVRQQQMVVAHQYSFAPDGEARLVSRCPADNPGLVQAQPRVPLTPTRGTSSRVAVQRGVGSGPHPPDTQQPSPSKAFKPRFPGDQVVNGAGPELSTGPSPGPTFEPIPTHMNALGSQANGSVSPDSVGGGLRASSRLPDTGEGPSRATGRQGSSAEQPLGGRLRKLSLGQYDNDAGGQLPFSKCAWGKAGVDYAPNLPPFPSPADVKETMTPGYPQDLDIIDGRILSSKESMCSTPAFPVSPETPYVKTALRHPPFSPPEPPLSSPASQHKGGREPRSCPETLTHAVGMSESPIGPKSTMLRADASSTPSFQQAFASSCTISSNGPGQRRESSSSAERQWVESSPKPMVSLLGSGRPTGSPLSAEFSGTRKDSPVLSCFPPSELQAPFHSHELSLAEPPDSLAPPSSQAFLGFGTAPVGSGLPPEEDLGALLANSHGASPTPSIPLTATGAADNGFLSHNFLTVAPGHSSHHSPGLQGQGVTLPGQPPLPEKKRASEGDRSLGSVSPSSSGFSSPHSGSTISIPFPNVLPDFSKASEAASPLPDSPGDKLVIVKFVQDTSKFWYKADISREQAIAMLKDKEPGSFIVRDSHSFRGAYGLAMKVATPPPSVLQLNKKAGDLANELVRHFLIECTPKGVRLKGCSNEPYFGSLTALVCQHSITPLALPCKLLIPERDPLEEIAESSPQTAANSAAELLKQGAACNVWYLNSVEMESLTGHQAIQKALSITLVQEPPPVSTVVHFKVSAQGITLTDNQRKLFFRRHYPVNSVIFCALDPQDRKWIKDGPSSKVFGFVARKQGSATDNVCHLFAEHDPEQPASAIVNFVSKVMIGSPKKV
B2: GFP-KANK2 (protein, UniProt Q63ZY3 1-851)
chain: MAQVLHVPAPFPGTPGPASPPAFPAKDPDPPYSVETPYGYRLDLDFLKYVDDIEKGHTLRRVAVQRRPRLSSLPRGPGSWWTSTESLCSNASGDSRHSAYSYCGRGFYPQYGALETRGGFNPRVERTLLDARRRLEDQAATPTGLGSLTPSAAGSTASLVGVGLPPPTPRSSGLSTPVPPSAGHLAHVREQMAGALRKLRQLEEQVKLIPVLQVKLSVLQEEKRQLTVQLKSQKFLGHPTAGRGRSELCLDLPDPPEDPVALETRSVGTWVRERDLGMPDGEAALAAKVAVLETQLKKALQELQAAQARQADPQPQAWPPPDSPVRVDTVRVVEGPREVEVVASTAAGAPAQRAQSLEPYGTGLRALAMPGRPESPPVFRSQEVVETMCPVPAAATSNVHMVKKISITERSCDGAAGLPEVPAESSSSPPGSEVASLTQPEKSTGRVPTQEPTHREPTRQAASQESEEAGGTGGPPAGVRSIMKRKEEVADPTAHRRSLQFVGVNGGYESSSEDSSTAENISDNDSTENEAPEPRERVPSVAEAPQLRPAGTAAAKTSRQECQLSRESQHIPTAEGASGSNTEEEIRMELSPDLISACLALEKYLDNPNALTERELKVAYTTVLQEWLRLACRSDAHPELVRRHLVTFRAMSARLLDYVVNIADSNGNTALHYSVSHANFPVVQQLLDSGVCKVDKQNRAGYSPIMLTALATLKTQDDIETVLQLFRLGNINAKASQAGQTALMLAVSHGRVDVVKALLACEADVNVQDDDGSTALMCACEHGHKEIAGLLLAVPSCDISLTDRDGSTALMVALDAGQSEIASMLYSRMNIKCSFAPMSDDESPTSSSAEE

Molecular target: mCh-tensin1-cBAK (human) (UniProt Q9HBL0)
Test: mitochondrial targeting and recruitment assay; NIH3T3 cells expressing an mCherry- and cBAK-tagged tensin at mitochondria; endogenous partner immunostained

Row | Molecule | binding
1 | endogenous paxillin (from UniProt Q8VI36 1-591) | binds
2 | endogenous talin1 (from UniProt P26039 1-2541) | binds
3 | endogenous vinculin (from UniProt Q64727 1-1066) | binds

Molecular target: mCh-talinFL-cBAK
Test: mitochondrial targeting and recruitment assay; NIH3T3 cells co-expressing an mCherry- and cBAK-tagged bait at mitochondria with a GFP-tagged partner; co-localisation at mitochondria by fluorescence microscopy

Row | Molecule | binding
4 | B1 | no binding

Molecular target: mCh-tensin1-cBAK (human) (UniProt Q9HBL0)
Test: as above

Row | Molecule | binding
5 | GFP-FAK (from UniProt Q05397 1-1052) | binds
6 | GFP-ILK (from UniProt Q13418 1-452) | binds
7 | GFP-paxillin (from UniProt P49023 1-591) | binds
8 | GFP-talin1 (from UniProt P26039 1-2541) | binds
9 | GFP-talin2 (from UniProt Q9Y4G6 1-2542) | binds
10 | GFP-vinculin (from UniProt P12003-1) | binds
11 | B2 | binds

Molecular target: T1, mCh-tensin2-cBAK (human)
Test: as above

Row | Molecule | binding
12 | GFP-vinculin (from UniProt P12003-1) | no binding
